This note sets out measurements from article PMC7819943, “Rice protein-binding microarrays: a tool to detect cis-acting elements near promoter regions in rice”.

Sequences of proteins named here, by UniProt entry; tags and fusion partners are left off.
UniProt Q0JBA9, entry or part of it: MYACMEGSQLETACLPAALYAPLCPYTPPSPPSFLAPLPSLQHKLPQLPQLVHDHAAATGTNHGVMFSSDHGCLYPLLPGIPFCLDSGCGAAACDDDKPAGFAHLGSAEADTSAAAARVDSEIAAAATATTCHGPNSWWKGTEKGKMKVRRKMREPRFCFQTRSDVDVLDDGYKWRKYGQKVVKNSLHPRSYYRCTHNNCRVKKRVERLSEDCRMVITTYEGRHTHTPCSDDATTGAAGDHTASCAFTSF

The other results are listed elsewhere or left out.

The assay addresses OsWRKY34 (Oryza sativa, UniProt Q0JBA9 1-250). Kind of assay: protein-binding microarray (RPBM); PBS, 2% BSA, 51.3 ng/ul salmon testes DNA, 50 uM zinc acetate, 200 nM TF, 25 C, 1 h; high values mean tight binding. As to conditions: protein: recombinant; tags: N-terminal polyhistidine and DsRed monomer fusion (pET32a); label: CyDye5-dUTP incorporated in the synthesized complementary strand; 3' TTTTT single-stranded linker to array surface; dsDNA, one strand shown. A digest of the protocol: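 The binding signal is fluorescence intensity per feature, in arbitrary units, read on an Axon 4000B scanner. Polyhistidine- and DsRed-tagged transcription factors (N-terminal fusions) from E. coli BL21-CodonPlus were purified on Ni–NTA and applied at 200 nM for 1 h at 25 °C to a double-stranded, BSA-blocked custom Agilent array in buffer with 50 µM zinc acetate.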
Consider “ATCCCGATTTTTCTTTCTTTTTTTTCTCTGCCTCTGCGAGCGGAGTCACCTAGTGCAG”, for which the binding signal is 9810 fluorescence intensity (a.u.).

As to “TTCTCGACCTCCCGTACTCGTTTCCTTGTCGCCTCTTCTTCGGAGTCACCTAGTGCAG”, the binding signal is 15200 fluorescence intensity (a.u.).

With “CTCTACACTCTAGCAATTCAACAATTATTTTCCTTTGTTTCGGAGTCACCTAGTGCAG”, the binding signal is 8390 fluorescence intensity (a.u.).

As to “TTTTGTGTTATTCCCTGTTTTCTTCACATGCTATTTTGTGCGGAGTCACCTAGTGCAG”, the binding signal was 12800 fluorescence intensity (a.u.).

With “GAGGTCCCGTCGCTCCGGCGAGCTCCCGCCATCCGCCTCGCGGAGTCACCTAGTGCAG”, the binding signal was 8630 fluorescence intensity (a.u.).

As for “GGCCACTCGTATAAATTAGCTGCGCTCTCCTCCCTTTTCCCGGAGTCACCTAGTGCAG”, the binding signal is 9850 fluorescence intensity (a.u.).

Take “CACACCTCGCCGCTCTTCCCGGCCTCCACCCGCCGCCCTTCGGAGTCACCTAGTGCAG”: the binding signal was 8510 fluorescence intensity (a.u.).

In the case of “GTTACTAATTAAGTTGCATCATTGTCCATGGTTGTACATCCGGAGTCACCTAGTGCAG”, the binding signal was 9100 fluorescence intensity (a.u.).

On to “CATTAGTCTATTGCGTGTGTACAGCCCACAAGCTAACCCTCGGAGTCACCTAGTGCAG”, for which the binding signal was 9440 fluorescence intensity (a.u.).

For the sequence “AATAGATGACGCTGTTGACTTTTTGTCATATTTTTGACCACGGAGTCACCTAGTGCAG”, the binding signal is 14100 fluorescence intensity (a.u.).

As to “TGTCAAAAGTTGCAGGGGCAATGGCGTGGAGGGAGGGTACCGGAGTCACCTAGTGCAG”, the binding signal was 8160 fluorescence intensity (a.u.).

As to “TGAGGTTTTGGGTTCTTGGGCACTTCTTGTTCTAGCCAAGCGGAGTCACCTAGTGCAG”, the binding signal is 9900 fluorescence intensity (a.u.).

Regarding “ATGACAAGTTGAGGGACCTTCGGTGTACTTTTTCCTTTCCCGGAGTCACCTAGTGCAG”, the binding signal is 9790 fluorescence intensity (a.u.).

“GCCGTGTTTAGTTTCAAAGTTTTTCTTCAAACTTCCAACTCGGAGTCACCTAGTGCAG”: the binding signal was 8680 fluorescence intensity (a.u.).

Take “GTTTGTTAGTCTTCTCATTTGGACCTATAATTACGACTGTCGGAGTCACCTAGTGCAG”: the binding signal was 8930 fluorescence intensity (a.u.).

On to “AATGTTTACTCAGAGTTGAAATTCTTTGTCAATTGTCCTTCGGAGTCACCTAGTGCAG”, for which the binding signal was 8260 fluorescence intensity (a.u.).

Take “ATGACTTCCGATCTACTACTCCAGTCTACTAGACCGCACACGGAGTCACCTAGTGCAG”: the binding signal is 8080 fluorescence intensity (a.u.).

For the sequence “AAAGCTCTCCACGTCACCACCGCCGCCACGCTCTCGCCTCCGGAGTCACCTAGTGCAG”, the binding signal was 9580 fluorescence intensity (a.u.).

Regarding “TTCCACCGCCGCCGCCGCCGCCGCCGCTCGCCGCCGCTCCCGGAGTCACCTAGTGCAG”, the binding signal is 8670 fluorescence intensity (a.u.).

As to “CTCTCTCTCTCTCTCTCTCTCTCTCCAACCACTCCAACGACGGAGTCACCTAGTGCAG”, the binding signal was 10300 fluorescence intensity (a.u.).

In the case of “GCAGTAGGGGTCTCGCATCCTCTACAGTCACTCGCTTAGCCGGAGTCACCTAGTGCAG”, the binding signal was 8980 fluorescence intensity (a.u.).

“TAACACGGGTGTCCTTCGTCGAATGATTCTTTCGCTGTTTCGGAGTCACCTAGTGCAG”: the binding signal is 10200 fluorescence intensity (a.u.).

“TTATAAACTTGGTCAAACTTAATAAAGTTTGACTAGAAAACGGAGTCACCTAGTGCAG”: the binding signal is 8320 fluorescence intensity (a.u.).

For “GCTATGCCTCGCGTGCTCGCTGCTGCTGCGCGCCCGCGCGCGGAGTCACCTAGTGCAG”, the binding signal was 8200 fluorescence intensity (a.u.).

Take “AGGGGAGAGGAGGGGAGGCGGCGCGGCGGCGAGGAGGGGACGGAGTCACCTAGTGCAG”: the binding signal is 10200 fluorescence intensity (a.u.).

Consider “GCGTTGGGTCAAATGGTCAATGGTTGTGGGACTGTGGGGCCGGAGTCACCTAGTGCAG”, for which the binding signal was 8360 fluorescence intensity (a.u.).

“ACACATAGTGTTGGCCACACCTGTCGGTTTCATGGTTAATCGGAGTCACCTAGTGCAG”: the binding signal is 9100 fluorescence intensity (a.u.).

With “ATCCGATCCTCTTCTCTTCTCTTCTCTTCTTCCCCACATCCGGAGTCACCTAGTGCAG”, the binding signal was 8660 fluorescence intensity (a.u.).

As for “TGTTTGTTGCTCACTCCTTTCTTGATTATTAGTTGGTAGCCGGAGTCACCTAGTGCAG”, the binding signal was 9820 fluorescence intensity (a.u.).

Take “TCCTTTTTTTAAATCAACGGGACTCCAGTTTTTATATTTTCGGAGTCACCTAGTGCAG”: the binding signal is 9060 fluorescence intensity (a.u.).

In the case of “CTCACAGTAAGCTTGTCCAACAGATCCATTCCTAACCTACCGGAGTCACCTAGTGCAG”, the binding signal is 8140 ± 110 fluorescence intensity (a.u.).

For the sequence “GTTCCACGTTTGAAGGCATTTCTGTCCCGTCCAGATTCATCGGAGTCACCTAGTGCAG”, the binding signal was 9480 fluorescence intensity (a.u.).

Consider “CATGCTTTCATTGTTGTTGTCGTGCCTTACTACGTTTCAGCGGAGTCACCTAGTGCAG”, for which the binding signal was 9000 fluorescence intensity (a.u.).

Regarding “TCATCCACACGCGCCATTGTTTGTTGCCGAAAATTGAAAACGGAGTCACCTAGTGCAG”, the binding signal is 8380 fluorescence intensity (a.u.).

In the case of “AGGCTCCACTCCGACGAGATAGCTTCGTGTTGGCCAACGCCGGAGTCACCTAGTGCAG”, the binding signal was 8930 fluorescence intensity (a.u.).

Consider “CCACCGCCCACCGCGCCGTCGTATAACTCTCTCCATGTCTCGGAGTCACCTAGTGCAG”, for which the binding signal is 9560 fluorescence intensity (a.u.).

On to “ACAACGAACTATTCACCATATTCACCACACGCCCTTCTGTCGGAGTCACCTAGTGCAG”, for which the binding signal was 8400 fluorescence intensity (a.u.).

On to “TATCTAAATATTTGACGCCGTTGACTTTTTAAAACATGTTCGGAGTCACCTAGTGCAG”, for which the binding signal is 30900 fluorescence intensity (a.u.).

With “CTTTCACGAATAGGCTCTCGACACTACTTATTGCTGTCTACGGAGTCACCTAGTGCAG”, the binding signal is 8720 fluorescence intensity (a.u.).

On to “ATTTAGGGTTAGGTTTTTTGGTTTCTTTTATTTCTTTTTCCGGAGTCACCTAGTGCAG”, for which the binding signal is 11200 fluorescence intensity (a.u.).

Regarding “TTCGTGCCGTCCTTTTACAATTTTATACGTGTCTTATTACCGGAGTCACCTAGTGCAG”, the binding signal was 13500 fluorescence intensity (a.u.).

In the case of “TCTTTGCTGGTTTCCTCACAACCACTCTTCCAAAATTATGCGGAGTCACCTAGTGCAG”, the binding signal is 8420 fluorescence intensity (a.u.).
